Measured values taken from paper doi:10.1101/2020.11.05.370320.

Amino acid sequences for entries named in this document (tags omitted).
UniProt Q9P209: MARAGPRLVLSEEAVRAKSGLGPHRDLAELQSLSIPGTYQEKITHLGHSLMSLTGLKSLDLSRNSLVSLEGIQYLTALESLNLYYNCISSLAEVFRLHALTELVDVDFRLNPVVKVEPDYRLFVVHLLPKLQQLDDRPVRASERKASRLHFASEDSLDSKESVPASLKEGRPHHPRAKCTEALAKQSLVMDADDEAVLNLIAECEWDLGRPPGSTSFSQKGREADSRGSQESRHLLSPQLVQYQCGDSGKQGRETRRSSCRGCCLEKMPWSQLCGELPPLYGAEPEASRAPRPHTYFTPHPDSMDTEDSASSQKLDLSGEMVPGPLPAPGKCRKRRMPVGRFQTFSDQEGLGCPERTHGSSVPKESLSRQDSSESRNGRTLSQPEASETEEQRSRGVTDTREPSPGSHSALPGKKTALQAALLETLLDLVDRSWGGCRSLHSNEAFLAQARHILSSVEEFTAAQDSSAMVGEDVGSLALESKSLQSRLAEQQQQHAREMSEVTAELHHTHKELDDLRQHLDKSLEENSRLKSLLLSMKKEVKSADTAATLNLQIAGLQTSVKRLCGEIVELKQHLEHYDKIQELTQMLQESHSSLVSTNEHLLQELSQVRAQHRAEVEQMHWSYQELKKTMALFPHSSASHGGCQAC

Legend:
[1] = molecular target: Flag-BirA*-AURKA (Aurora kinase A) (human) (UniProt O14965); assay: proximity labelling
[2] = molecular target: T1, V5-BirA*-AURKA (Aurora kinase A) (human), O14965; assay: proximity labelling; conditions: remark: other sources report otherwise
T1 chain: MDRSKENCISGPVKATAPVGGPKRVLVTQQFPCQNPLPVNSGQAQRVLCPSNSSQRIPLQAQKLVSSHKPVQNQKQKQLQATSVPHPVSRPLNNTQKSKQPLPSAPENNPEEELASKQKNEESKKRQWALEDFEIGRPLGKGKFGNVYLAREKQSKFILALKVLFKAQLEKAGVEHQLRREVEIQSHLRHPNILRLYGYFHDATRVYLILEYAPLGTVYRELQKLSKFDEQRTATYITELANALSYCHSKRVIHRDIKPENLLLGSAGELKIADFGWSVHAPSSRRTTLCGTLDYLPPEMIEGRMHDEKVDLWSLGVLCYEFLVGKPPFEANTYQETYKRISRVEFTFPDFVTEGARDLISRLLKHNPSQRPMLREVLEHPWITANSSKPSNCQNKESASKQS

Which binding [1] does the source give for PCM1 (from UniProt Q15154-1 1-2024) here?
Its binding is “binds”.

Which binding [1] does the source give for CEP72 (from UniProt Q9P209 1-647) here?
Its binding is “binds”.

B1: CEP131 (protein, UniProt Q9UPN4 1-1083)
chain: MKGTRAIGSVPERSPAGVDLSLTGLPPPVSRRPGSAATTKPIVRSVSVVTGSEQKRKVLEATGPGGSQAINNLRRSNSTTQVSQPRSGSPRPTEPTDFLMLFEGSPSGKKRPASLSTAPSEKGATWNVLDDQPRGFTLPSNARSSSALDSPAGPRRKECTVALAPNFTANNRSNKGAVGNCVTTMVHNRYTPSERAPPLKSSNQTAPSLNNIIKAATCEGSESSGFGKLPKNVSSATHSARNNTGGSTGLPRRKEVTEEEAERFIHQVNQATVTIQRWYRHQVQRRGAGAARLEHLLQAKREEQRQRSGEGTLLDLHQQKEAARRKAREEKARQARRAAIQELQQKRALRAQKASTAERGPPENPRETRVPGMRQPAQELSPTPGGTAHQALKANNTGGGLPAAGPGDRCLPTSDSSPEPQQPPEDRTQDVLAQDAAGDNLEMMAPSRGSAKSRGPLEELLHTLQLLEKEPDVLPRPRTHHRGRYAWASEVTTEDDASSLTADNLEKFGKLSAFPEPPEDGTLLSEAKLQSIMSFLDEMEKSGQDQLDSQQEGWVPEAGPGPLELGSEVSTSVMRLKLEVEEKKQAMLLLQRALAQQRDLTARRVKETEKALSRQLQRQREHYEATIQRHLAFIDQLIEDKKVLSEKCEAVVAELKQEDQRCTERVAQAQAQHELEIKKLKELMSATEKARREKWISEKTKKIKEVTVRGLEPEIQKLIARHKQEVRRLKSLHEAELLQSDERASQRCLRQAEELREQLEREKEALGQQERERARQRFQQHLEQEQWALQQQRQRLYSEVAEERERLGQQAARQRAELEELRQQLEESSSALTRALRAEFEKGREEQERRHQMELNTLKQQLELERQAWEAGRTRKEEAWLLNREQELREEIRKGRDKEIELVIHRLEADMALAKEESEKAAESRIKRLRDKYEAELSELEQSERKLQERCSELKGQLGEAEGENLRLQGLVRQKERALEDAQAVNEQLSSERSNLAQVIRQEFEDRLAASEEETRQAKAELATLQARQQLELEEVHRRVKTALARKEEAVSSLRTQHEAAVKRADHLEELLEQHRRPTPSTK
How did the binding [1] turn out when B1 was run?
Its binding is “binds”.

B2: CP110, O43303 1-1012 (protein)
chain: MEEYEKFCEKSLARIQEASLSTESFLPAQSESISLIRFHGVAILSPLLNIEKRKEMQQEKQKALDVEARKQVNRKKALLTRVQEILDNVQVRKAPNASDFDQWEMETVYSNSEVRNLNVPATFPNSFPSHTEHSTAAKLDKIAGILPLDNEDQCKTDGIDLARDSEGFNSPKQCDSSNISHVENEAFPKTSSATPQETLISDGPFSVNEQQDLPLLAEVIPDPYVMSLQNLMKKSKEYIEREQSRRSLRGSINRIVNESHLDKEHDAVEVADCVKEKGQLTGKHCVSVIPDKPSLNKSNVLLQGASTQASSMSMPVLASFSKVDIPIRTGHPTVLESNSDFKVIPTFVTENNVIKSLTGSYAKLPSPEPSMSPKMHRRRSRTSSACHILINNPINACELSPKGKEQAMDLIIQDTDENTNVPEIMPKLPTDLAGVCSSKVYVGKNTSEVKEDVVLGKSNQVCQSSGNHLENKVTHGLVTVEGQLTSDERGAHIMNSTCAAMPKLHEPYASSQCIASPNFGTVSGLKPASMLEKNCSLQTELNKSYDVKNPSPLLMQNQNTRQQMDTPMVSCGNEQFLDNSFEKVKRRLDLDIDGLQKENCPYVITSGITEQERQHLPEKRYPKGSGFVNKNKMLGTSSKESEELLKSKMLAFEEMRKRLEEQHAQQLSLLIAEQEREQERLQKEIEEQEKMLKEKKAMTAEASELDINNAVELEWRKISDSSLLETMLSQADSLHTSNSNSSGFTNSAMQYSFVSANEAPFYLWGSSTSGLTKLSVTRPFGRAKTRWSQVFSLEIQAKFNKITAVAKGFLTRRLMQTDKLKQLRQTVKDTMEFIRSFQSEAPLKRGIVSAQDASLQERVLAQLRAALYGIHDIFFVMDAAERMSILHHDREVRKEKMLRQMDKMKSPRVALSAATQKSLDRKKYMKAAEMGMPNKKFLVKQNPSETRVLQPNQGQNAPVHRLLSRQGTPKTSVKGVVQNRQKPSQSRVPNRVPVSGVYAGKIQRKRPNVATI
For B2, which binding [2] is on record?
The binding was “binds”.

B3: CEP63 (protein, UniProt Q96MT8 1-703)
chain: MEALLEGIQNRGHGGGFLTSCEAELQELMKQIDIMVAHKKSEWEGRTHALETCLKIREQELKSLRSQLDVTHKEVGMLHQQVEEHEKIKQEMTMEYKQELKKLHEELCILKRSYEKLQKKQMREFRGNTKNHREDRSEIERLTAKIEEFRQKSLDWEKQRLIYQQQVSSLEAQRKALAEQSEIIQAQLVNRKQKLESVELSSQSEIQHLSSKLERANDTICANELEIERLTMRVNDLVGTSMTVLQEQQQKEEKLRESEKLLEALQEEKRELKAALQSQENLIHEARIQKEKLQEKVKATNTQHAVEAIRPREESLAEKKYTSQGQGDLDSVLSQLNFTHTSEDLLQAEVTCLEGSLESVSATCKQLSQELMEKYEELKRMEAHNNEYKAEIKKLKEQILQGEQSYSSALEGMKMEISHLTQELHQRDITIASTKGSSSDMEKRLRAEMQKAEDKAVEHKEILDQLESLKLENRHLSEMVMKLELGLHEAKEISLADLQENYIEALNKLVSENQQLQKDLMNTKSQLEISTQMCKKQNDRIFKPTHSRTTEFKNTEFKPTHGQHRHDGIKTEHYKTDLHSPRGQASDSINPMSRVLSPLSPQISPCSSTRSLTSYSLCKTHSLPSALDTNEANFSDTMSESMNDQEEFISSCSLPVSPLGSIATRFLEEEELRSHHILERLDAHIEELKRESEKTVRQFTALK
B3 was tested. Which binding [1] did it give?
The binding was “no binding”.

Results are given in words; binding and its absence hold for the method and conditions named. Binding seen in cells or lysates may run through a third protein. Here binding means that the protein was enriched with, or labelled near, the bait; the list need not be complete. For some assays here: No binding means not detected with the bait. For some assays here: Tags and fused reporters may be left off the sequences shown.
